Some results were stated once for a whole list of compounds, not compound by compound. At least one structure is not confirmed: it was looked up by name or label, or the drawing left a doubt.
What was measured:
hEP2 = biological target: T1, hEP2 (Homo sapiens, UniProt P43116); assay: hEP2 cAMP assay; assay type: cell-based; conditions: summary in words of Tables 22 to 25
T1 construct: expressed in transfected cells; host or cells: HEK293
Method: Experimental Example 1.1: hEP2 cAMP Assay
(§1) HEK293 cells overexpressing hEP2 were cultured in growth medium (GM:MEM (Gibco™, 11095080)/10% HI FBS (Gibco™, 10082147)/1% penicillin/streptomycin). Before the experiment, the growth medium was removed, and starvation medium (HBSS (Gibco™ 14025076)/10% GM) was added. Thereafter, the cells were incubated for 4 hours. The HEK293 cells harboring hEP2 were detached from the culture dish with a non-enzymatic cell dissociation buffer (Gibco™, 15040066). The cells were resuspended in assay buffer (AB:HBSS, 0.1% BSA stabilizer, 0.5 mM IBMX, 5 mM HEPES).
(§2) 1,000 cells in 5 μL of AB were seeded per well in a 384 well plate (Corning®, 3570), and stock solutions of test compounds were prepared at a concentration of 1 mM in DMSO and serially diluted in DMSO to the concentration required for the inhibition dose response curve (test concentration range of 10 M-0.001 nM). PGE2 (Sigma, P0409, stock solution: 1 μM) was used as an agonist at a final concentration of 400 pM corresponding to EC50-80. 2.5 μL of the diluted compound and 2.5 μL of PGE2 (400 pM final concentration) were transferred to the assay plate, and then the plate was incubated at room temperature for 12 minutes.
(§3) 5 μL of each donor (Eu-cAMP tracer) and acceptor (ULight-anti-cAMP) was added, and the plate was incubated in the dark for 1 hour at room temperature, and then a Varioskan LUX multimode microplate reader was used to obtain the results (excitation: 334 nm, emission: 615 and 665 nm). The resulting FRET fluorescence value (665 nm/615 nm*10000) was converted and then calculated as a percentage of cAMP relative to the DMSO control value. IC50 values and curves were generated with GraphPad Prism software using log (inhibitor) versus response-variable slopes (4 parameters), and the median of multiple experiments was taken as the experiment result.

By UniProt entry, the sequences of proteins in these tests, tags left out. Where a name states a change or a piece, a line headed by the entry shows the natural chain unless it says otherwise.
UniProt P43116: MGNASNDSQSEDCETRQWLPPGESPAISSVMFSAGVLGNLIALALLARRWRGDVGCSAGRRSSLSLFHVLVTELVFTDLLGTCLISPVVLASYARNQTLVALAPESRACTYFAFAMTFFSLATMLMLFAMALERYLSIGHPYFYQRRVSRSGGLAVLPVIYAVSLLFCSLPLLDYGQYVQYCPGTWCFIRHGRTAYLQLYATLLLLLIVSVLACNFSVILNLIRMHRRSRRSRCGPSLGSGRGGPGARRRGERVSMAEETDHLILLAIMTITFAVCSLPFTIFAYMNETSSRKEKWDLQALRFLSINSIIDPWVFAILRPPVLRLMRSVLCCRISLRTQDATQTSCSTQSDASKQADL
UniProt P35408: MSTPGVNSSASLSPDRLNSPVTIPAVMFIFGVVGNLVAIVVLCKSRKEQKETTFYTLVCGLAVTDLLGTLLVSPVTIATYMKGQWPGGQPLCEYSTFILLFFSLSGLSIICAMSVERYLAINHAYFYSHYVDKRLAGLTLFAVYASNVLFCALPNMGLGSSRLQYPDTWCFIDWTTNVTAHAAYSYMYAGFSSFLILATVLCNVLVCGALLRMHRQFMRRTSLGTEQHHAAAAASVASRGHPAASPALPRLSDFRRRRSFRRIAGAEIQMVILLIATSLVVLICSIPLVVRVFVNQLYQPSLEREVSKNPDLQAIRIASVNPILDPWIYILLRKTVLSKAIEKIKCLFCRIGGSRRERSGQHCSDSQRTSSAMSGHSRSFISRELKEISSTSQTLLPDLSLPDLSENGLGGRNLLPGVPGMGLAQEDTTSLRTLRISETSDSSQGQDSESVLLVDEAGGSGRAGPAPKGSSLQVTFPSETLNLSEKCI

hEP4 = biological target: T2, hEP4 (Homo sapiens, UniProt P35408); assay: hEP4 cAMP assay; assay type: cell-based; conditions: summary in words of Tables 22 to 25
T2 construct: expressed in transfected cells; host or cells: HEK293
Method: Experimental Example 1.2: hEP4 cAMP Assay
as §1, with “hEP4” for “hEP2”, “hours.” for “hours. The”
as §2, with “100 PM)” for “1 μM)”, “20 nM” for “400 pM”, “(20 nM” for “(400 pM”, “18.5” for “12”
as §3, with “compared” for “relative”, “slope” for “slopes”

SMILES	inhibitory activity on EP2 (hEP2)	inhibitory activity on EP4 (hEP4)
Cc1sc(C)c(C(=O)NC2CC3(C2)CC(C(=O)O)C3)c1Cc1ccc(-c2cccnc2)cc1 (stereo not drawn) [Example 27, 6-(2,5-dimethyl-4-(4-(pyridin-3-yl)benzyl)thiophene-3-carboxamido)spiro[3.3]heptane-2-carboxylic acid]	excellent inhibitory activity	excellent inhibitory activity
COc1cccc(-c2ccc(Cn3ccc4scc(C(=O)NC5CC6(C5)CC(C(=O)O)C6)c43)cc2)n1 (stereo not drawn) [Example 108, 6-(4-(4-(6-methoxypyridin-2-yl)benzyl)-4H-thieno[3,2-b]pyrrole-3-carboxamido)spiro[3.3]heptane-2-carboxylic acid]	excellent inhibitory activity	excellent inhibitory activity
COc1cc(-c2ccc(Cc3c(C)sc(C)c3C(=O)NC3CC4(C3)CC(C(=O)O)C4)cc2)cc(C(F)(F)F)c1 (stereo not drawn) [Example 51, 6-(4-((3′-methoxy-5′-(trifluoromethyl)-[1,1′-biphenyl]-4-yl)methyl)-2,5-dimethylthiophene-3-carboxamido)spiro[3.3]heptane-2-carboxylic acid]	excellent inhibitory activity	excellent inhibitory activity
Cc1sc(C)c(C(=O)NC2CC3(C2)CC(C(=O)O)C3)c1Cn1cc(-c2ccccc2)cn1 (stereo not drawn) [Example 78, 6-(2,5-dimethyl-4-((4-phenyl-1H-pyrazol-1-yl)methyl)thiophene-3-carboxamido)spiro[3.3]heptane-2-carboxylic acid]	excellent inhibitory activity	excellent inhibitory activity
COc1cc(-c2ccc(Cc3c(C)sc(C)c3C(=O)NC3CC4(C3)CC(C(=O)O)C4)cc2)ccn1 (stereo not drawn) [Example 50, 6-(4-(4-(2-methoxypyridin-4-yl)benzyl)-2,5-dimethylthiophene-3-carboxamido)spiro[3.3]heptane-2-carboxylic acid]	excellent inhibitory activity	excellent inhibitory activity
COc1ccccc1-c1ccc(Cc2c(C)sc(C)c2C(=O)NC2CC3(C2)CC(C(=O)O)C3)cc1 (stereo not drawn) [Example 24, 6-(4-((2′-methoxy-[1,1′-biphenyl]-4-yl)methyl)-2,5-dimethylthiophene-3-carboxamido)spiro[3.3]heptane-2-carboxylic acid]	excellent inhibitory activity	excellent inhibitory activity
O=C(NC1CC2(C1)CC(C(=O)O)C2)c1csc(Br)c1Cc1ccc(-c2ccccc2)cc1 (stereo not drawn) [Example 15, 6-(4-([1,1′-biphenyl]-4-ylmethyl)-5-bromothiophene-3-carboxamido)spiro[3.3]heptane-2-carboxylic acid]	excellent inhibitory activity	excellent inhibitory activity
COc1cc(F)cc(-c2ccc(Cn3ccc4scc(C(=O)NC5CC6(C5)CC(C(=O)O)C6)c43)nc2)c1 (stereo not drawn) [Example 113, 6-(4-((5-(3-fluoro-5-methoxyphenyl)pyridin-2-yl)methyl)-4H-thieno[3,2-b]pyrrole-3-carboxamido)spiro [3.3]heptane-2-carboxylic acid]	excellent inhibitory activity	excellent inhibitory activity
Cc1sc(C)c(C(=O)NC2CC3(C2)CC(C(=O)O)C3)c1Cc1ccccc1-c1ccccc1 (stereo not drawn) [Example 4, 6-(4-([1,1′-biphenyl]-2-ylmethyl)-2,5-dimethylthiophene-3-carboxamido)spiro[3.3]heptane-2-carboxylic acid]	excellent inhibitory activity	excellent inhibitory activity
Cc1sc(C)c(C(=O)NC2CC3(C2)CC(C(=O)O)C3)c1Cc1ccc(-c2cc(F)cc(S(C)(=O)=O)c2)cc1 (stereo not drawn) [Example 56, 6-(4-((3′-fluoro-5′-(methylsulfonyl)-[1,1′-biphenyl]-4-yl)methyl)-2,5-dimethylthiophene-3-carboxamido)spiro[3.3]heptane-2-carboxylic acid]	excellent inhibitory activity	excellent inhibitory activity
COc1cc(OC)cc(-c2ccc(Cn3ccc4scc(C(=O)NC5CC6(C5)CC(C(=O)O)C6)c43)cc2)c1 (stereo not drawn) [Example 89, 6-(4-((3′,5′-dimethoxy-[1,1′-biphenyl]-4-yl)methyl)-4H-thieno[3,2-b]pyrrole-3-carboxamido)spiro[3.3]heptane-2-carboxylic acid]	excellent inhibitory activity	excellent inhibitory activity
Cc1sc(C)c(C(=O)NC2CC3(C2)CC(C(=O)O)C3)c1Nc1ccc(-c2ccccc2)cc1 (stereo not drawn) [Example 75, 6-(4-([1,1′-biphenyl]-4-ylamino)-2,5-dimethylthiophene-3-carboxamido)spiro[3.3]heptane-2-carboxylic acid]	excellent inhibitory activity	excellent inhibitory activity
Cc1scc(C(=O)NC2CC3(C2)CC(C(=O)O)C3)c1Cc1ccc(-c2ccccc2)cc1 (stereo not drawn) [Example 20, 6-(4-([1,1′-biphenyl]-4-ylmethyl)-5-methylthiophene-3-carboxamido)spiro[3.3]heptane-2-carboxylic acid]	excellent inhibitory activity	excellent inhibitory activity
Cc1sc(C)c(C(=O)NC2CC3(C2)CC(C(=O)O)C3)c1Cc1ccc(-c2ccncc2)cc1 (stereo not drawn) [Example 26, 6-(2,5-dimethyl-4-(4-(pyridin-4-yl)benzyl)thiophene-3-carboxamido)spiro[3.3]heptane-2-carboxylic acid]	excellent inhibitory activity	excellent inhibitory activity
Cc1sc(C)c(C(=O)N(C)C2CC3(CC(C(=O)O)C3)C2)c1Cc1ccc(-c2ccccc2)cc1 (stereo not drawn) [Example 73, 6-(4-([1,1′-biphenyl]-4-ylmethyl)-N,2,5-trimethylthiophene-3-carboxamido)spiro[3.3]heptane-2-carboxylic acid]	excellent inhibitory activity	excellent inhibitory activity
O=C(NC1CC2(C1)CC(C(=O)O)C2)c1csc2ccn(Cc3cnc(-c4ccccc4)nc3)c12 (stereo not drawn) [Example 94, 6-(4-((2-phenylpyrimidin-5-yl)methyl)-4H-thieno[3,2-b]pyrrole-3-carboxamido)spiro[3.3]heptane-2-carboxylic acid]	excellent inhibitory activity	excellent inhibitory activity
Cc1sc(C)c(C(=O)NC2CC3(C2)CC(C(=O)O)C3)c1CCc1ccc(-c2ccccc2)cc1 (stereo not drawn) [Example 6, 6-(4-(2-([1,1′-biphenyl]-4-yl)ethyl)-2,5-dimethylthiophene-3-carboxamido)spiro[3.3]heptane-2-carboxylic acid]	excellent inhibitory activity	excellent inhibitory activity
O=C(NC1CC2(C1)CC(C(=O)O)C2)c1csc2ccn(Cc3ccc(-c4cccnc4)cc3)c12 (stereo not drawn) [Example 99, 6-(4-(4-(pyridin-3-yl)benzyl)-4H-thieno[3,2-b]pyrrole-3-carboxamido)spiro[3.3]heptane-2-carboxylic acid]	excellent inhibitory activity	excellent inhibitory activity

— US20250161271A1, “PHARMACEUTICAL COMPOSITION FOR TREATING CANCER, COMPRISING ANTICANCER AGENT AND NOVEL COMPOUND HAVING INHIBITORY ACTIVITY WITH RESPECT TO PROSTAGLANDIN E2 RECEPTORS” (KANAPH THERAPEUTICS INC., priority 2022, published 2025)
